Measurements as given in patent US20240122926A1, “APELIN RECEPTOR MODULATORS FOR TREATING MUSCLE CONDITIONS” (priority 2022, published 2024).
“Also recorded” adds a separate entry of the source. For at least one compound, name, drawing or mass did not settle the structure.

Legend:
Type in all cases: in vivo, mouse
aged (18-month-old) mice [1] = assay: Cardiotoxin (CTX)-induced muscle injury, transcript levels, aged mice; details: for MyoD transcript level: 3 and 7 days
Procedure: (§1) Mice were i.p injected with buprenorphine (Centravet, 0.1 mg/kg) 30 minutes before injury and the day after. The day of the injury, mice were anesthetized with isoflurane inhalation and hindlimbs were shaved. Then, 10 μM of cardiotoxin (CTX, Latoxan, #L8102) was injected through two injections of 25 μl into the left tibialis muscle and two injections of 50 μl into the left gastrocnemius muscle, using a 22-gauge needle (Hamilton). Mice were euthanized 3 and 7 days after injury by cervical dislocation, muscles (PBS- and CTX-injected) were cut in two parts, one being snap frozen into liquid nitrogen for total RNA extraction and the other part being embedded into OCT, frozen in isopentane cooled with liquid nitrogen for histological analysis.

young (3-month-old) mice = assay: Cardiotoxin (CTX)-induced muscle injury, transcript levels, young mice
Procedure: as §1

aged (18-month-old) mice [2] = assay: Cardiotoxin (CTX)-induced muscle injury, histology of tibialis (cross-sectional area, centrally nucleated fibers)
Procedure: Impairment of muscle regeneration can contribute to age-related muscle weakness. This is particularly true in aged individuals who engage in physical activity. Exercise-induced muscle hypertrophy is linked to the capacity of muscle stem cells to be activated and promote regeneration.
Mice were i.p injected with buprenorphine (Centravet, 0.1 mg/kg) 30 minutes before injury and the day after. The day of the injury, mice were anesthetized with isoflurane inhalation and hindlimbs were shaved. […]
Mouse muscle samples were dissected and cryopreserved in OCT frozen in liquid nitrogen cooled isopentane. […] Images were captured using a digital camera (Nanozoomer, Hamamatsu) attached to a motorized fluorescence microscope or using Olympus VS120 Virtual Microscopy Slide Scanning System. The area covered by eMHC-positive fibers and degenerated area was determined manually across the entire sections using the VS-ASW FL software measurement tools. The size of myofibers with central nuclei was calculated from laminin/DAPI staining on all fibers of the section and area determination were performed across the entire sections, using an automated image processing algorithm developed internally using the MetaXpress software (Molecular Devices).

[3] = tibialis anterior, 7 days, both BGE-105 dosages

Compound: COc1cccc(OC)c1-n1c(NS(=O)(=O)[C@@H](C)[C@H](C)c2ncc(C)cn2)nnc1-c1cncc(C)c1 [BGE-105, (2S,3R)—N-(4-(2,6-dimethoxyphenyl)-5-(5-methyl-3-pyridinyl)-4H-1,2,4-triazol-3-yl)-3-(5-methyl-2-pyrimidinyl)-2-butanesulfonamide]
- MyoD transcript level (aged (18-month-old) mice [1]; gastrocnemius, both BGE-105 dosages): significant increase
- Myf5 transcript level (aged (18-month-old) mice [1]; gastrocnemius, 3 or 7 days): no significant change
- MyoG transcript level (aged (18-month-old) mice [1]; gastrocnemius, 3 or 7 days): no significant change
- Pax7 transcript level (aged (18-month-old) mice [1]; gastrocnemius, 3 or 7 days): no significant change
- MyHC8 transcript level (aged (18-month-old) mice [1]; gastrocnemius, any time point): does not show a change
- MyHC3 transcript level (aged (18-month-old) mice [1]; gastrocnemius, only at 7 days, larger BGE-105 dose (200 mg/kg/day)): significant increase
- MyoD transcript level (aged (18-month-old) mice [1]; tibialis anterior, both BGE-105 dosages): significant increase
- Pax7 transcript level (aged (18-month-old) mice [1]; tibialis anterior, 7 days, BGE-105 50 and 200 mg/kg/day P.O., apelin 0.5 mol/kg/day injection): significant increase
- MyHC3 transcript level (aged (18-month-old) mice [1]; [3]): significant increase
- MyoG transcript level (aged (18-month-old) mice [1]; [3]): significant increase
- Myf5 transcript level (young (3-month-old) mice; gastrocnemius, 3 or 7 days): no change
- MyoD transcript level (young (3-month-old) mice; gastrocnemius, 3 or 7 days): no change
- MyoG transcript level (young (3-month-old) mice; gastrocnemius, 3 or 7 days): no change
- Pax7 transcript level (young (3-month-old) mice; gastrocnemius, 3 or 7 days): no change
- MyHC8 transcript level (young (3-month-old) mice; gastrocnemius, 3 days, both BGE-105 dosages): non-significant increase
- MyHC3 transcript level (young (3-month-old) mice; gastrocnemius, only 3 days, smaller BGE-105 dosage (50 mg/kg/day)): increase
- MyHC3 transcript level (young (3-month-old) mice; tibialis, 3 or 7 days): no significant change
- MyHC8 transcript level (young (3-month-old) mice; tibialis, 3 or 7 days): no significant change
- Myf5 transcript level (young (3-month-old) mice; tibialis, 3 or 7 days): no difference
- MyoD transcript level (young (3-month-old) mice; tibialis, 3 or 7 days): no significant increase
- MyoG transcript level (young (3-month-old) mice; tibialis, 3 or 7 days): no difference
- Pax7 transcript level (young (3-month-old) mice; tibialis, 3 or 7 days): no change
- cross-sectional area of the tibialis (aged (18-month-old) mice [2]; 3 and 7 days post cardiotoxin, BA1 (50 mg/kg/d) and BA2 (200 mg/kg/d)): significant increase
- amount of centrally nucleated myofibers (CNM) (aged (18-month-old) mice [2]; 18-month-old mice after cardiotoxin, significant at the higher BGE-105 dose (200 mg/kg/day), 200 mg/kg/day): dose-dependent increase; also recorded: significant increase
